Reference: PubChem BioAssay AID540276 (National Center for Advancing Translational Sciences (NCATS), 2011)
“And” between values parts separate entries of the source, which are not always exact repeats. Equal values may be shown once. The campaign covered roughly 300,000 compounds. About 5,400 (1.8%) were called active. This list was built around the results that the source calls inconclusive (neither active nor inactive); the mix of calls is not that of the screen. Calls come from the whole dose curve; tested in HEK293 cells. Potencies beside an inconclusive call are fits to weak or partial responses and may not hold up.

Assay: qHTS for inhibitors of binding or entry into cells for Marburg Virus
Details: Marburg virus pseudotyped entry inhibition, cell reporter; series mostly up to 37.8 µM
Potency is the fitted concentration of half-maximal effect.

| SMILES | Potency |
| --- | --- |
| CCCCOC(=O)N/N=C/C=C/c1ccccc1 | inconclusive: 1.41 µM [activator, partial curve, poor fit] |
| COc1cc2c(cc1OC)C(C)N(C(=O)C1=NN(c3cccc(C)c3)C(=O)CC1)CC2 (stereo not given) | inactive |
| Cc1cccc(C)c1NC(=O)c1cn(-c2ccccc2)nc1-c1ccccc1 | inactive |
| NS(=O)(=O)c1ccc(CCNC(=O)COC(=O)/C=C/c2ccccc2Cl)cc1 | inactive |
| C=C(C)Cn1c(=O)c2c(nc3n2CCN3c2cccc(Cl)c2C)n(C)c1=O | inactive |
| CC1CCc2c(sc(NC(=O)CSc3nc4c(c(C(F)(F)F)n3)CCc3ccccc3-4)c2C(N)=O)C1 (stereo not given) | inactive |
| CC(=O)N1CCc2c(sc3c2c(=O)n(CCc2ccccc2)c(=O)n3Cc2ccc(Cl)cc2)C1 | inconclusive: 35.5 µM [inhibitor, single point] |
| COc1ccc2c(c1)C=C(C(=O)NCc1ccc(Cl)cc1)CO2 | inactive |
| CCOC(=O)c1c(CN2CCN(Cc3ccccc3)CC2)n(C)c2cc(Br)c(OC)cc12 | inactive |
| O=C(Nc1sc2c(c1C(=O)NCc1ccco1)CCCC2)c1ccc2c(c1)OCO2 | inactive |
| O=C(C1CCC(CNS(=O)(=O)c2cccc3cccnc23)CC1)N1CCCC1 (stereo not given) | inactive |
| COc1ccc(OC)c(S(=O)(=O)N2CCC(C(=O)NCCc3ccc(OC)c(OC)c3)CC2)c1 | inconclusive: 35.5 µM [inhibitor, single point] |
| CCNC(=O)COC(=O)/C=C/c1c(C)nn(Cc2cccc(OC)c2)c1Cl | inconclusive: 1.26 µM [activator, single point] |
| CCCCOc1ccc(C(C)NC(=O)C2CCCN(S(=O)(=O)CCC)C2)cc1 (stereo not given) | inconclusive: 1 µM [inhibitor, partial curve, poor fit] |
| O=C(OCC(=O)N1CCCC1)c1cc(Br)ccc1Cl | inconclusive: 6.31 µM [activator, single point] |
| CC(C)CC(=O)/C(=C\c1ccc(Cl)cc1Cl)n1cncn1 | inconclusive: 23.1 µM [inhibitor, single point] |
| COc1ccc(OCCN2CCN(C(=O)c3ccc(OC)cc3)CC2)cc1 | inconclusive: 20.6 µM [inhibitor, partial curve, poor fit] |
| Cc1sc2nc[nH]c(=O)c2c1-c1ccc(Cl)cc1 | inconclusive: 2.51 µM [inhibitor, full curve] |
| CCOc1ccc(NC(=O)Cn2c(=O)n(-c3cccc(OC)c3)c(=O)c3c4c(sc32)CCCC4)cc1 | inactive |
| CCCCn1c(N)c(N(CC)C(=O)C2=NN(c3ccccc3)C(=O)CC2)c(=O)[nH]c1=O | inconclusive: 10 µM [inhibitor, partial curve, poor fit] |
| CCSc1ncc(Cl)c(C(=O)Nc2ccc(S(=O)(=O)N3CCCCC3)cc2)n1 | inconclusive: 10 µM [inhibitor, partial curve, poor fit] |
| c1ccc(-c2ccccc2OCCOCCN2CCc3ccccc3C2)cc1 | inconclusive: 8.91 µM [inhibitor, partial curve, poor fit] |
| CCOc1ccc(N2C(=O)C(Cl)=C(Nc3ccccc3O)C2=O)cc1 | inactive |
| COc1ccc(CC(=O)N/N=C(\C)c2ccc(Br)s2)cc1 | inconclusive: 3.16 µM [inhibitor, partial curve, poor fit] |

| SMILES | Potency |
| --- | --- |
| COc1ccc(C(=O)C2CCCN(C(=O)c3ccc(F)cc3)C2)cc1OC (stereo not given) | inactive |
| Cc1cc(CNC(=O)COc2ccc(C#N)cc2)c2ccccc2n1 | inactive |
| COc1ccc(O)c(/C=N/NC(=S)NCCc2ccccc2)c1 | inconclusive: 1.46 µM [inhibitor, partial curve, poor fit] |
| CCC(C)c1ccc(OCC(=O)Nc2cccc(-c3nc4ncccc4o3)c2)cc1 (stereo not given) | inconclusive: 1.26 µM [activator, full curve] |
| CCOc1ccc(NC(=O)c2oc3ccccc3c2NC(=O)Cc2ccc(F)cc2)cc1 | inactive |
| CC(C)c1ccc(CN2CCN(C(=O)CCl)CC2)cc1 | inconclusive: 29.1 µM [inhibitor, single point] |
| Cc1nc(NCCc2ccccc2F)c(C#N)c(C)c1[N+](=O)[O-] | inconclusive: 35.5 µM [inhibitor, single point] |
| COc1ccc(OC)c2nc3c(C(=O)NCCN(C)C)cccc3nc12 | inconclusive: 7.94 µM [inhibitor, partial curve, poor fit] |
| COCCN(Cc1cc2cc(C)c(C)cc2nc1Cl)C(=O)Nc1ccccc1 | inactive |
| CC(C)c1ccccc1OCCCCCNCCO | inconclusive: 9.2 µM [inhibitor, partial curve] |
| CCOc1ccc(OCc2ccc(C(=O)N3CCCC(C)C3)cc2)cc1 (stereo not given) | inconclusive: 16.4 µM [inhibitor, single point] |
| COc1ccc(C(=O)Oc2cccc(/C=N/NC(N)=S)c2)cc1 | inconclusive: 31.6 µM [inhibitor, single point] |
| O=C1NC2(CCC3(CC2)OCCO3)NN1c1ccc(Cl)cc1 | inconclusive: 10 µM [inhibitor, single point] |
| COc1cc(OC)c(NC(=O)c2nnn(Cc3ccc(C)cc3)c2N)cc1Cl | inconclusive: 35.5 µM [inhibitor, single point] |
| CCOc1ccc(CN2CCNC(=O)C2CC(=O)NCC2CCOCC2)cc1 (stereo not given) | inconclusive: 14.1 µM [activator, partial curve, poor fit] |
| O=C(NC(=S)Nc1ccc(N2CCOCC2)c(Cl)c1)c1cccs1 | inconclusive: 35.5 µM [activator, single point] |
| CCC(C)[C@H](NC(=O)Nc1cccc(OC)c1)C(=O)OC (stereo not given in full) | inconclusive: 20.6 µM [activator, single point] |
| CCOc1ccc(/C=N/NC(=O)c2cc(-c3ccco3)nc3ccccc23)cc1 | inconclusive: 15.8 µM [inhibitor, single point] |
| Cc1ccc(NC(=O)c2c(NC(=O)c3ccco3)sc3c2CCC(C(C)(C)C)C3)c(C)c1 (stereo not given) | inactive |
| CSc1oc(-c2ccco2)nc1S(=O)(=O)c1ccc(C)cc1 | inconclusive: 35.5 µM [inhibitor, single point] |
| NC1(C(=O)O)CSSC1 | inconclusive: 35.5 µM [inhibitor, single point] |
| Cc1cccc(N2C(=O)C3CCC(c4ccccc4)CC3C2=O)c1 (stereo not given) | inactive |
| CC=CC(=O)C[C@H]1CC[C@@H](C)[C@@H](CCO)O1 | inconclusive: 1.06 µM [activator, full curve, poor fit] |
| O=C(Cc1ccccc1[N+](=O)[O-])NCCC1=CCCCC1 | inconclusive: 35.5 µM [inhibitor, single point] |

Two entries from above, tab-delimited:
SMILES	Potency
Cc1ccc(NC(=O)c2c(NC(=O)c3ccco3)sc3c2CCC(C(C)(C)C)C3)c(C)c1 (stereo not given)	inactive
CSc1oc(-c2ccco2)nc1S(=O)(=O)c1ccc(C)cc1	inconclusive: 35.5 µM [inhibitor, single point]

(continued)

| SMILES | Potency |
| --- | --- |
| Nc1nnnn1/N=C/c1ccc(N2CCCCC2)c([N+](=O)[O-])c1 | inconclusive: 1.12 µM [activator, full curve, poor fit] |
| COc1ccc(NC2CC(=O)N(C(C)C)C2=O)cc1 (stereo not given) | inconclusive: 4.11 µM [activator, partial curve, poor fit] |
| COc1cccc(CSc2nc3cc4c(cc3cc2C)OCCO4)c1 | inconclusive: 25.1 µM [inhibitor, single point] |
| CC(C)CCOc1ccc(C(=O)NCC(c2cccs2)N2CCOCC2)cc1 (stereo not given) | inconclusive: 35.5 µM [inhibitor, single point] |
| Cn1c(SCC(=O)NCc2ccc3c(c2)OCO3)nnc1-c1cc2ccccc2cc1O | inconclusive: 0.82 µM [inhibitor, partial curve, poor fit] |
| O=C(NC1CCCC1)C(c1ccccc1)N(Cc1ccc(F)cc1)C(=O)c1csnn1 (stereo not given) | inconclusive: 7.94 µM [inhibitor, partial curve, poor fit] |
| CC(C)Cc1nc(N2CCOCC2)c(C#N)c2c1COC(C)(C)C2 | inconclusive: 0.1 µM [inhibitor, full curve, poor fit] |
| COc1ccc(-c2cc3nc(-c4ccccc4)cc(C(F)(F)F)n3n2)cc1 | inactive |
| Cc1ccc(S(=O)(=O)n2cc(-c3ccccc3)c(N)n2)cc1 | inconclusive: 29.1 µM [inhibitor, single point] |
| COc1ccc(OCc2nc3c4cc(OC)c(OC)cc4nc(=S)n3[nH]2)cc1 | inconclusive: 0.891 µM [inhibitor, full curve, poor fit] |
| CCOc1ccc2oc(C(=O)N3CCN(Cc4ccccc4)CC3)c(C)c2c1 | inconclusive: 11.2 µM [inhibitor, partial curve, poor fit] |
| Cc1ccc(NC(=O)CSc2nc(C)c(Cc3ccccc3)c(=O)[nH]2)cc1 | inactive |
| Cc1[nH]c2c(ccc3ccccc32)c1C1C(CCN)C1(C)C (stereo not given) | active: 25.9 µM |
| COC(=O)c1ccc(NC(=O)CSc2nc3ccc(OC)cc3[nH]2)cc1 | inactive |
| COc1ccccc1C(=O)NC(=S)Nc1cccc2cc(O)ccc12 | inactive |
| COCCCNC(=O)Cn1c(=O)n(Cc2ccc(C(=O)NCc3ccc(C)cc3)cc2)c(=O)c2ccccc21 | inactive |
| CN(C)c1ccc(-c2nn3c(C4CCCCC4)nnc3s2)cc1 | inactive |
| COc1ccc(OCC(O)Cn2c(=N)n(Cc3ccccc3)c3ccccc32)cc1 (stereo not given) | active: 4.11 µM |
| O=C1CNC(c2ccccc2Cl)c2cc(Br)ccc2N1 (stereo not given) | inactive |
| CC(OC(=O)Nc1ccccc1)C(=O)OC1CCCCC1 (stereo not given) | inconclusive: 31.6 µM [activator, single point] |
| O=C(Nc1cccnc1Cl)c1ccc2c(Cl)c3c(nc2c1)CCC3 | inconclusive: 4.47 µM [inhibitor, full curve, poor fit] |
| COc1ccc(CCNC(=O)CN(c2ccccc2OC)S(=O)(=O)c2ccc(C)cc2)cc1 | inactive and inconclusive: 35.5 µM [inhibitor, single point] |

Sorted by heavy-atom count (low to high): some entries from above.

| SMILES | Potency |
| --- | --- |
| COC(=O)c1ccc(NC(=O)CSc2nc3ccc(OC)cc3[nH]2)cc1 | inactive |
| Cc1ccc(NC(=O)CSc2nc(C)c(Cc3ccccc3)c(=O)[nH]2)cc1 | inactive |
| COc1ccc(OCc2nc3c4cc(OC)c(OC)cc4nc(=S)n3[nH]2)cc1 | inconclusive: 0.891 µM [inhibitor, full curve, poor fit] |
